Assay: F-18 labeling (Al18F labeling efficiency by ITLC)
Details: ^18F labeling with Al^18F, 0.1 M sodium acetate buffer, 110° C., 10 min; ITLC-SG, 75% MeCN

Structure (SMILES) | Labeling efficiency(%)
O=C(O)CCN1CCN(CC(=O)O)CCN(CC(=O)O)CC1 [Comp. Ex. 2, 4,7-bis(tert-butoxycarbonylmethyl)-1,4,7-triazonanane-1-propionic acid] | 23.6%
O=C(O)CCC(=O)N1CCN(CC(=O)O)CCN(CC(=O)O)CC1 [Comp. Ex. 5, 4,7-bis(carboxymethyl)-1,4,7-triazononane-1-oxo-butyric acid] | 32.9%
O=C(O)CCCN1CCN(CC(=O)O)CCN(CC(=O)O)CC1 [Example 1, 4,7-bis(carboxymethyl)-1,4,7-triazonane-1-butyric acid] | 86.1%
O=C(O)CN1CCN(CC(=O)O)CCN(Cc2ccccc2)CC1 [NO2A-Bz, 1-benzyl-4,7-bis(carboxymethyl)-1,4,7-triazonane] | 83.0%
O=C(O)CCCCN1CCN(CC(=O)O)CCN(CC(=O)O)CC1 [Example 2, 4,7-bis(carboxymethyl)-1,4,7-triazonane-1-pentanoic acid] | 77.8%
O=C(O)CN1CCN(CC(=O)O)CCN(CC(=O)O)CC1 [NOTA] | 10.9%
